Data: PMC12230637
No constants are given. Whether binding was seen depends on the method and setting. Binding seen in cells or lysates may run through a third protein. Some binding calls cover weakened binding; strength is not graded here.

The chains behind the UniProt entries cited, without tags or fusion partners.
UniProt O00425: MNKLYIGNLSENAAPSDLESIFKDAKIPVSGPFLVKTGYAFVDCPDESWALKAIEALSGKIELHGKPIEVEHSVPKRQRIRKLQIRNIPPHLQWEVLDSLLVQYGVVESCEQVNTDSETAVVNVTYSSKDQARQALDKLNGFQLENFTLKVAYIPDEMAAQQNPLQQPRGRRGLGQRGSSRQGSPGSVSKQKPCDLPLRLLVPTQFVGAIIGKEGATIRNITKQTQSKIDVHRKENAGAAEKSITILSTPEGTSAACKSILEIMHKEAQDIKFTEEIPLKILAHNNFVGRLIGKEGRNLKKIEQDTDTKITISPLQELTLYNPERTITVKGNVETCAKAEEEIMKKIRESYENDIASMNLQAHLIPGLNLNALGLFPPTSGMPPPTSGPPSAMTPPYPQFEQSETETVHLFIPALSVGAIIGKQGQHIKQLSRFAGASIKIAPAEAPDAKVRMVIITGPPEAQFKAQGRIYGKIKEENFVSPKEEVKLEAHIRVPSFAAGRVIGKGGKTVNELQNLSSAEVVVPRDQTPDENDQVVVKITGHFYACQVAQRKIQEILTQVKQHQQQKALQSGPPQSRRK
UniProt Q8ND56: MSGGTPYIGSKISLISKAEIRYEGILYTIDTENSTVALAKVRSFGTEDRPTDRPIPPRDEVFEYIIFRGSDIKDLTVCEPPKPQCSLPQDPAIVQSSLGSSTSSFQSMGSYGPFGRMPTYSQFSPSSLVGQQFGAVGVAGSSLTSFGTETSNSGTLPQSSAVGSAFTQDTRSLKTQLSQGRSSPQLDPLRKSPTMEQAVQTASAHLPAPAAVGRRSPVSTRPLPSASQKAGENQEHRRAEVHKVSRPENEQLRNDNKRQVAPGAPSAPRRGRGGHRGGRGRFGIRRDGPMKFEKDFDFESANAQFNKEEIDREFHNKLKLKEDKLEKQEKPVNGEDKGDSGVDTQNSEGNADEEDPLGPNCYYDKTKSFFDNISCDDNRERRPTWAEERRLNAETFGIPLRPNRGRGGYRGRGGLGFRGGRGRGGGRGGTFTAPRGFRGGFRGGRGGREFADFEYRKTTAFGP

Target: T1, PATL1 (human (endogenous in A549)) (UniProt Q86TB9)
T1 sequence: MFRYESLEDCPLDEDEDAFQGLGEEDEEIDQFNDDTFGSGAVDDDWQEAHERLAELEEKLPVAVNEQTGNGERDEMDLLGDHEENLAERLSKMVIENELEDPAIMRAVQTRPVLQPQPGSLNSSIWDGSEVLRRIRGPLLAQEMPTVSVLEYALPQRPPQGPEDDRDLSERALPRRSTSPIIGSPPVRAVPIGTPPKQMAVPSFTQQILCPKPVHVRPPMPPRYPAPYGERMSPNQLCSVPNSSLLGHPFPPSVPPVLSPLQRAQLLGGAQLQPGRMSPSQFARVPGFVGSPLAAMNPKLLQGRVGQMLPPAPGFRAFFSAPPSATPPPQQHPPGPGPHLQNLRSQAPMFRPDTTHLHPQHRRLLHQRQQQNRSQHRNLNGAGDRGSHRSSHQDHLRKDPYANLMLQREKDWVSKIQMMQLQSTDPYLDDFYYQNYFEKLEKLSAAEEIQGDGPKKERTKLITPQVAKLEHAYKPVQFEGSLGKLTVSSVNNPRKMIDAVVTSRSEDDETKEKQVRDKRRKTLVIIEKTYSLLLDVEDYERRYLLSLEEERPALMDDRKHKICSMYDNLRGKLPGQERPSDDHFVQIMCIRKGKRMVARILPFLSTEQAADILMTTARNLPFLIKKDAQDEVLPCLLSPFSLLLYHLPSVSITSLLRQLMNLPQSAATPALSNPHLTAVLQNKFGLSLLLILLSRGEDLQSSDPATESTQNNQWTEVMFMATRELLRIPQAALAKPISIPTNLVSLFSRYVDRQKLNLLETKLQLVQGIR
Experiment: co-IP; lysates of A549 cells immunoprecipitated with an antibody against PATL1, western blot analysis of the precipitate

Substance | binding
Insulin-like growth factor 2 mRNA-binding protein 3 (IMP3) (from UniProt O00425 1-579) | binds
LSM14A (from UniProt Q8ND56 1-463) | binds
